# Results reported in PubChem BioAssay AID2685 (National Center for Advancing Translational Sciences (NCATS), 2010).
# This is one part of the list. Further columns of the screen follow, without active or inactive calls. The list favours compounds with an active or inconclusive main result. Potencies come from curve fits of mixed quality, noted in brackets.
# Assay: qHTS Assay for Lipid Storage Modulators in Drosophila S3 Cells;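 on cell number change: cells counted by Cell Tracker Red CMTPX staining in the red channel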
# Settings: BODIPY lipid droplet fluorescence, 18-24 h; for cell number change: measured here: cell count max response, cells fed with added oleic acid
# Method in brief: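 Drosophila S3 cells loaded with oleic acid (400 uM, as added) and compounds at several concentrations; lipid droplets imaged by 488-nm laser-scanning cytometry, 500–530 nm intensity and object ratio to cell channel. Percent activity normalized to 20 uM Triacsin C.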
# [1] = measured here: cell number channel AC50, cells fed with added oleic acid
# [2] = measured here: lipid fluorescence (Fed channel) AC50, cells fed with added oleic acid
smiles,measurement,setting,value
O=C(Oc1ccccc1C(=O)N1CCOCC1)c1ccc(F)cc1,cell number change,,-1.6%
COc1ccccc1NC(=S)N1CCN(Cc2ccc3c(c2)OCO3)CC1,cell number change,,-100%
same,AC50,[1],"29.1 µM [falling, single point]"
same,AC50,[2],"0.291 µM [rising, full curve, poor fit]"
O=C(NC(Cc1ccccc1)C(=O)O)/C(=C/c1cccc(Br)c1)NC(=O)c1ccco1 (configuration not stated),AC50,[2],"0.58 µM [falling, single point]"
CC(C)N1C(=O)S/C(=C\c2ccc(-c3ccc(Cl)c(C(=O)O)c3)o2)C1=O,cell number change,,-15.9%
same,AC50,[2],"18.4 µM [rising, single point]"
CCN(CC)CCCNc1nc2cc(OC)c(OC)cc2c2nc(-c3cccnc3)nn12,cell number change,,12.1%
Cc1ccccc1C1(CCN2CCCCC2)CCOC(C)(C)C1 (configuration not stated),cell number change,,36%
same,AC50,[1],"5.8 µM [rising, full curve]"
same,AC50,[2],"0.731 µM [rising, full curve]"
CN(C)S(=O)(=O)N1CCN(CC(O)COc2ccc(-c3ccccc3)cc2)CC1 (configuration not stated),cell number change,,-16.4%
same,AC50,[2],"29.1 µM [falling, single point]"
COc1ccc(CNC(=O)CS(=O)(=O)Cc2nc(-c3cccc(OC)c3)oc2C)cc1,cell number change,,14.1%
same,AC50,[2],"29.1 µM [falling, single point]"
CC1=[N+]([O-])C(N2CCOCC2)C(O)(c2ccccc2)C1 (configuration not stated),cell number change,,-8.59%
same,AC50,[2],"1.03 µM [falling, full curve]"
CCCN1C(=O)/C(=C/c2c(NCCCOC(C)C)nc3c(C)cccn3c2=O)SC1=S,cell number change,,14.6%
same,AC50,[2],"14.6 µM [rising, partial curve, poor fit]"
OC(COC(c1ccccc1)c1ccccc1)CN1CCc2ccccc2C1 (configuration not stated),cell number change,,1.38%
same,AC50,[2],"14.6 µM [falling, single point]"
CCOc1ccc(NC(=O)CCCCCN2C(=O)[C@@H]3Cc4ccccc4CN3C2=O)cc1,cell number change,,16.5%
same,AC50,[2],"20.6 µM [rising, partial curve]"
CCOc1ccc(C(=O)CCC(=O)NN2C(=O)NC3(CCCCC3)C2=O)cc1,cell number change,,20.4%
O=C(Nc1cccc(F)c1)C1CCN(C(=O)NCc2ccccc2)CC1,cell number change,,10.3%
COc1cc(N/C(N)=N/c2nc(C)cc(C)n2)cc(OC)c1,cell number change,,-3.51%
same,AC50,[2],"29.1 µM [rising, single point]"
CCCCCNC(=O)c1ccc2c(=O)n(CCOC)c(=O)[nH]c2c1,cell number change,,-1.43%
same,AC50,[2],"0.00517 µM [falling, full curve, poor fit]"
O=C(O)c1ccccc1C(=O)Nc1cc(-c2ccccc2)[nH]n1,cell number change,,-2.13%
CC(C)C[C@H]1CN=C(Nc2ccccc2)N1CCCC1CCCCC1,cell number change,,-2.4%
COC(=O)CN1C(=S)N(c2ccc(F)cc2)C(=O)C1CC(=O)Nc1ccccc1 (configuration not stated),AC50,[1],"0.82 µM [falling, full curve]"
same,AC50,[2],"1.03 µM [falling, full curve]"
O=C(NNc1cccc(Cl)n1)C1CC1,cell number change,,-30.6%
same,AC50,[1],"0.146 µM [falling, full curve]"
same,AC50,[2],"0.116 µM [falling, full curve]"
CCC(C)(C)n1nnnc1C(C(C)C)N1CCN(C(=O)c2ccco2)CC1 (configuration not stated),cell number change,,1.28%
CCOc1ccc(C(C)C)cc1S(=O)(=O)N1CCN(C(=O)c2ccco2)CC1,cell number change,,-8.2%
same,AC50,[2],"6.51 µM [rising, single point]"
CNS(=O)(=O)c1cccc(C(=O)NNC(=O)CN(C)S(=O)(=O)c2ccc(Cl)cc2)c1,cell number change,,-6%
COc1cccc(OCCCn2ccnc2)c1,cell number change,,-16.8%
same,AC50,[2],"29.1 µM [falling, single point]"
O=C(O)c1cc(C2CC2)nn1-c1ccccc1,cell number change,,-0.116%
Cc1cccc(NC(=O)CCN2CCOCC2)c1,cell number change,,10.6%
same,AC50,[2],"0.651 µM [falling, full curve, poor fit]"
N#CCCNS(=O)(=O)c1ccc(C(=O)OCC2CCCCC2)cc1,cell number change,,-5.56%
same,AC50,[2],"11.6 µM [falling, partial curve]"
COc1ccc(OC)c(C2C(C#N)=C(N)Oc3cc(N)ccc32)c1 (configuration not stated),cell number change,,-0.749%
same,AC50,[1],"0.164 µM [rising, partial curve]"
CN(Cc1nc(-c2ccc(Cl)cc2)no1)C(=O)c1ccco1,cell number change,,-3.85%
same,AC50,[2],"29.1 µM [falling, single point]"
O=C(O)CCC(=O)OCc1c(-c2ccccc2)ncc2ccccc12,cell number change,,10%
COc1ccccc1NC(=S)NC1CCC(CC2CCC(NC(=S)Nc3ccccc3OC)CC2)CC1 (configuration not stated),cell number change,,-11.5%
same,AC50,[2],"29.1 µM [rising, single point]"
CC12CCC(=O)N1C(C(=O)NCCc1ccccc1)CS2 (configuration not stated),cell number change,,13%
COc1ccc(CC(=O)NC(C)c2nnc(SCC(=O)c3ccc(Br)cc3)n2C)cc1 (configuration not stated),cell number change,,-83.1%
same,AC50,[1],"29.1 µM [falling, single point]"
Cc1cccc(NS(=O)(=O)c2cccc3cccnc23)n1,cell number change,,-0.245%
same,AC50,[2],"0.461 µM [rising, partial curve]"
Cc1ccc(NS(=O)(=O)c2cccc([N+](=O)[O-])c2)nc1,cell number change,,53.2%
same,AC50,[1],"29.1 µM [rising, partial curve, poor fit]"
COc1ccccc1CC(=O)N1CCOCC1,cell number change,,5.11%
same,AC50,[2],"29.1 µM [rising, single point]"
CCCCC/C=N/NC(=O)c1[nH]c2ccc([N+](=O)[O-])cc2c1C,cell number change,,-12.8%
CCCc1nnc(NC(=O)CCC(=O)Nc2ccc(Cl)cc2)s1,cell number change,,-7.09%
C/C(N)=C(/C#N)C(=O)CSc1nc2ccccc2c(=O)n1Cc1ccc(F)cc1,cell number change,,-8.32%
same,AC50,[2],"6.51 µM [falling, single point]"
CC(=O)Nc1ccc(OCC(O)CN2CCCCC2C)cc1 (configuration not stated),cell number change,,-16.9%
same,AC50,[2],"6.51 µM [falling, single point]"
C=CCNC(=O)/C(C#N)=C/c1ccc(C)o1,cell number change,,45.1%
same,AC50,[2],"0.184 µM [rising, full curve, poor fit]"
O=C(Oc1ccccc1/C=C\C(=O)c1cc2ccccc2o1)c1cccc(F)c1,cell number change,,-11%
same,AC50,[2],"29.1 µM [falling, single point]"
CNC(=O)COC(=O)c1ccc(NC(=O)CC#N)cc1,cell number change,,-17.2%
same,AC50,[2],"0.146 µM [falling, full curve, poor fit]"
COc1cccc(CC(=O)OCc2csc(CC(=O)Nc3ccccc3C)n2)c1,cell number change,,-8.6%
same,AC50,[2],"0.206 µM [falling, full curve, poor fit]"

# Three entries from above, with bars between the fields:
smiles | measurement | setting | value
CCCCCNC(=O)c1ccc2c(=O)n(CCOC)c(=O)[nH]c2c1 | AC50 | [2] | 0.00517 µM [falling, full curve, poor fit]
O=C(O)c1ccccc1C(=O)Nc1cc(-c2ccccc2)[nH]n1 | cell number change |  | -2.13%
CC(C)C[C@H]1CN=C(Nc2ccccc2)N1CCCC1CCCCC1 | cell number change |  | -2.4%
